The results in this text go back to publication PMC3653798.

The target of the assay is Drosophila Van Gogh/Strabismus (Vang), Myc-tagged (Drosophila melanogaster). In words: co-IP; Drosophila tagged proteins co-expressed in HEK293T cells; lysis in 150 mM NaCl, 50 mM Tris/HCl pH 7.5, 10% glycerol, 0.4% Nonidet P-40; IP with anti-FLAG conjugated to Dynabeads M-270, 1 h at 4°C (reverse IP by the partner's tag); Western blot.

No constants are given. Whether binding was seen depends on the method and setting. In cells and extracts the contact can be indirect. A result given as binding can be weak or reduced; the word gives no strength. Tags and fused reporters may be left off the sequences shown.

B1: Drosophila APP Like (APPL), FLAG-tagged (protein, UniProt P14599 28-887)
chain: ASPRWEPQIAVLCEAGQIYQPQYLSEEGRWVTDLSKKTTGPTCLRDKMDLLDYCKKAYPNRDITNIVESSHYQKIGGWCRQGALNAAKCKGSHRWIKPFRCLGPFQSDALLVPEGCLFDHIHNASRCWPFVRWNQTGAAACQERGMQMRSFAMLLPCGISVFSGVEFVCCPKHFKTDEIHVKKTDLPVMPAAQINSANDELVMNDEDDSNDSNYSKDANEDDLDDEDDLMGDDEEDDMVADEAATAGGSPNTGSSGDSNSGSLDDINAEYDSGEEGDNYEEDGAGSESEAEVEASWDQSGGAKVVSLKSDSSSPSSAPVAPAPEKAPVKSESVTSTPQLSASAAAFVAANSGNSGTGAGAPPSTAQPTSDPYFTHFDPHYEHQSYKVSQKRLEESHREKVTRVMKDWSDLEEKYQDMRLADPKAAQSFKQRMTARFQTSVQALEEEGNAEKHQLAAMHQQRVLAHINQRKREAMTCYTQALTEQPPNAHHVEKCLQKLLRALHKDRAHALAHYRHLLNSGGPGGLEAAASERPRTLERLIDIDRAVNQSMTMLKRYPELSAKIAQLMNDYILALRSKDDIPGSSLGMSEEAEAGILDKYRVEIERKVAEKERLRLAEKQRKEQRAAEREKLREEKLRLEAKKVDDMLKSQVAEQQSQPTQSSTQSQAQQQQQEKSLPGKELGPDAALVTAANPNLETTKSEKDLSDTEYGEATVSSTKVQTVLPTVDDDAVQRAVEDVAAAVAHQEAEPQVQHFMTHDLGHRESSFSLRREFAQHAHAAKEGRNVYFTLSFAGIALMAAVFVGVAVAKWRTSRSPHAQGFIEVDQNVTTHHPIVREEKIVPNMQINGYENPTYKYFEVKE
Regarding B1, the binding result is “binds”.
